Assay results from patent US20160168253A1.
These are yes or no findings as the source states them, for the method shown. Some entries that bind do so weakly or less than the wild type.

The chains behind the UniProt entries cited, without tags or fusion partners. Residues count along the entry.
UniProt P05067, residues 672-713: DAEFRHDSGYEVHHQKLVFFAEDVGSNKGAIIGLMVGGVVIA

Target: native human β-amyloid plaques from brain sections of an Alzheimer's Disease patient (human) (UniProt P05067)
Experiment: indirect immunofluorescence on Alzheimer's disease brain sections

binding: binds
B1: Mab 31 = Gantenerumab (INN) (antibody, human IgG1, V domains shown)
VH: QVELVESGGGLVQPGGSLRLSCAASGFTFSSYAMSWVRQAPGKGLEWVSAINASGTRTYYADSVKGRFTISRDNSKNTLYLQMNSLRAEDTAVYYCARGKGNTHKPYGYVRYFDVWGQGTLVTVSS
VL: DIVLTQSPATLSLSPGERATLSCRASQSVSSSYLAWYQQKPGQAPRLLIYGASSRATGVPARFSGSGSGTDFTLTISSLEPEDFATYYCLQIYNMPITFGQGTKVEIKR
